# Results from the supplement of paper PMC11438910.
# This is one part of the list. The signal is at background level for most entries.
# B1: 4-99.3 (protein)
# chain 1: QVQLQESGPGLVKPSETLSLTCAVSGYSISSGYYWGWIRQPPGKGLEYIGYISGSWGKSYYKPSLKSRVTISKDTSKNQFSLTLSSVTAADTAVYYCARRLEYVGFDVWGPGVLVTVSS
# chain 2: QAAPTQPPSVSGSPGQSVTISCTGTSSDIGYYNAVSWYQQHPGKAPKLMIYEVSKRPSGVSDRFSGSKSGNTASLTISGLQAEDEADYYCSSYAGSNTYIFGSGTRLTVL
# Legend:
# Test in all cases: fluorescence intensity of antibody binding to polysaccharide-coupled beads; higher = stronger binding
# [1] = molecular target: pneumococcal polysaccharide Pn18B
# [2] = molecular target: pneumococcal polysaccharide Pn18C
# [3] = molecular target: pneumococcal polysaccharide Pn18F
# [4] = molecular target: pneumococcal polysaccharide Pn19A
# [5] = molecular target: pneumococcal polysaccharide Pn19B
# [6] = molecular target: pneumococcal polysaccharide Pn19C
# [7] = molecular target: pneumococcal polysaccharide Pn19F
# [8] = molecular target: pneumococcal polysaccharide Pn2
# [9] = molecular target: pneumococcal polysaccharide Pn20A
# [10] = molecular target: pneumococcal polysaccharide Pn20B
# [11] = molecular target: pneumococcal polysaccharide Pn21
# [12] = molecular target: pneumococcal polysaccharide Pn22A
# [13] = molecular target: pneumococcal polysaccharide Pn22F
# [14] = molecular target: pneumococcal polysaccharide Pn23A
# [15] = molecular target: pneumococcal polysaccharide Pn23B
# [16] = molecular target: pneumococcal polysaccharide Pn23F
# [17] = molecular target: pneumococcal polysaccharide Pn24A
# [18] = molecular target: pneumococcal polysaccharide Pn24B
# [19] = molecular target: pneumococcal polysaccharide Pn24F
# [20] = molecular target: pneumococcal polysaccharide Pn25A
# [21] = molecular target: pneumococcal polysaccharide Pn25F
# [22] = molecular target: pneumococcal polysaccharide Pn27
# [23] = molecular target: pneumococcal polysaccharide Pn28A
# [24] = antibody concentration 2.8593 ng/mL
# [25] = antibody concentration 15.2894 ng/mL
# [26] = antibody concentration 81.7561 ng/mL
# [27] = antibody concentration 437.17 ng/mL
# [28] = antibody concentration 2337.65 ng/mL
# [29] = antibody concentration 12500 ng/mL
# [30] = antibody concentration 0.1 ng/mL
# [31] = antibody concentration 0.534724 ng/mL
binder,measurement,setting,value
B1,fluorescence intensity,[1]; [24],28 MFI
same,fluorescence intensity,[1]; [25],29 MFI
same,fluorescence intensity,[1]; [26],30 MFI
same,fluorescence intensity,[1]; [27],31 MFI
same,fluorescence intensity,[1]; [28],38.5 MFI
same,fluorescence intensity,[1]; [29],55.2 MFI
same,fluorescence intensity,[2]; [30],18.2 MFI
same,fluorescence intensity,[2]; [31],16.5 MFI
same,fluorescence intensity,[2]; [24],18.5 MFI
same,fluorescence intensity,[2]; [25],18 MFI
same,fluorescence intensity,[2]; [26],18 MFI
same,fluorescence intensity,[2]; [27],20.5 MFI
same,fluorescence intensity,[2]; [28],25 MFI
same,fluorescence intensity,[2]; [29],61 MFI
same,fluorescence intensity,[3]; [30],21.5 MFI
same,fluorescence intensity,[3]; [31],22 MFI
same,fluorescence intensity,[3]; [24],22.5 MFI
same,fluorescence intensity,[3]; [25],22.5 MFI
same,fluorescence intensity,[3]; [26],22.5 MFI
same,fluorescence intensity,[3]; [27],26 MFI
same,fluorescence intensity,[3]; [28],35.2 MFI
same,fluorescence intensity,[3]; [29],50.8 MFI
same,fluorescence intensity,[4]; [30],17 MFI
same,fluorescence intensity,[4]; [31],16 MFI
same,fluorescence intensity,[4]; [24],19 MFI
same,fluorescence intensity,[4]; [25],16.8 MFI
same,fluorescence intensity,[4]; [26],17.2 MFI
same,fluorescence intensity,[4]; [27],19 MFI
same,fluorescence intensity,[4]; [28],24.8 MFI
same,fluorescence intensity,[4]; [29],46 MFI
same,fluorescence intensity,[5]; [30],27.8 MFI
same,fluorescence intensity,[5]; [31],26.5 MFI
same,fluorescence intensity,[5]; [24],27 MFI
same,fluorescence intensity,[5]; [25],28 MFI
same,fluorescence intensity,[5]; [26],27 MFI
same,fluorescence intensity,[5]; [27],31.5 MFI
same,fluorescence intensity,[5]; [28],76.5 MFI
same,fluorescence intensity,[5]; [29],495 MFI
same,fluorescence intensity,[6]; [30],26.2 MFI
same,fluorescence intensity,[6]; [31],25 MFI
same,fluorescence intensity,[6]; [24],24.5 MFI
same,fluorescence intensity,[6]; [25],24.5 MFI
same,fluorescence intensity,[6]; [26],25.8 MFI
same,fluorescence intensity,[6]; [27],26 MFI
same,fluorescence intensity,[6]; [28],57.5 MFI
same,fluorescence intensity,[6]; [29],340 MFI
same,fluorescence intensity,[7]; [30],25.5 MFI
same,fluorescence intensity,[7]; [31],24.2 MFI
same,fluorescence intensity,[7]; [24],24.5 MFI
same,fluorescence intensity,[7]; [25],24.5 MFI
same,fluorescence intensity,[7]; [26],25.5 MFI
same,fluorescence intensity,[7]; [27],28 MFI
same,fluorescence intensity,[7]; [28],33.5 MFI
same,fluorescence intensity,[7]; [29],71.5 MFI
same,fluorescence intensity,[8]; [30],18.5 MFI
same,fluorescence intensity,[8]; [31],19.5 MFI
same,fluorescence intensity,[8]; [24],19.5 MFI
same,fluorescence intensity,[8]; [25],19.2 MFI
same,fluorescence intensity,[8]; [26],19 MFI
same,fluorescence intensity,[8]; [27],21.5 MFI
same,fluorescence intensity,[8]; [28],26 MFI
same,fluorescence intensity,[8]; [29],34.2 MFI
same,fluorescence intensity,[9]; [30],23.2 MFI
same,fluorescence intensity,[9]; [31],22 MFI
same,fluorescence intensity,[9]; [24],21.5 MFI
same,fluorescence intensity,[9]; [25],22 MFI
same,fluorescence intensity,[9]; [26],22 MFI
same,fluorescence intensity,[9]; [27],23.5 MFI
same,fluorescence intensity,[9]; [28],55.2 MFI
same,fluorescence intensity,[9]; [29],346 MFI
same,fluorescence intensity,[10]; [30],23.5 MFI
same,fluorescence intensity,[10]; [31],25 MFI
same,fluorescence intensity,[10]; [24],23.5 MFI
same,fluorescence intensity,[10]; [25],23 MFI
same,fluorescence intensity,[10]; [26],22 MFI
same,fluorescence intensity,[10]; [27],24 MFI
same,fluorescence intensity,[10]; [28],30 MFI
same,fluorescence intensity,[10]; [29],75 MFI
same,fluorescence intensity,[11]; [30],19 MFI
same,fluorescence intensity,[11]; [31],19 MFI
same,fluorescence intensity,[11]; [24],17.5 MFI
same,fluorescence intensity,[11]; [25],19 MFI
same,fluorescence intensity,[11]; [26],18.2 MFI
same,fluorescence intensity,[11]; [27],19.5 MFI
same,fluorescence intensity,[11]; [28],20 MFI
same,fluorescence intensity,[11]; [29],36 MFI
same,fluorescence intensity,[12]; [30],22 MFI
same,fluorescence intensity,[12]; [31],20 MFI
same,fluorescence intensity,[12]; [24],18.5 MFI
same,fluorescence intensity,[12]; [25],20.8 MFI
same,fluorescence intensity,[12]; [26],20 MFI
same,fluorescence intensity,[12]; [27],21 MFI
same,fluorescence intensity,[12]; [28],35.2 MFI
same,fluorescence intensity,[12]; [29],124 MFI
same,fluorescence intensity,[13]; [30],30 MFI
same,fluorescence intensity,[13]; [31],28.5 MFI
same,fluorescence intensity,[13]; [24],30.2 MFI
same,fluorescence intensity,[13]; [25],28.8 MFI
same,fluorescence intensity,[13]; [26],31.5 MFI
same,fluorescence intensity,[13]; [27],30.5 MFI
same,fluorescence intensity,[13]; [28],34.2 MFI
same,fluorescence intensity,[13]; [29],55 MFI
same,fluorescence intensity,[14]; [30],21 MFI
same,fluorescence intensity,[14]; [31],25.8 MFI
same,fluorescence intensity,[14]; [24],22.5 MFI
same,fluorescence intensity,[14]; [25],25.2 MFI
same,fluorescence intensity,[14]; [26],25.5 MFI
same,fluorescence intensity,[14]; [27],32.8 MFI
same,fluorescence intensity,[14]; [28],56.2 MFI
same,fluorescence intensity,[14]; [29],84.2 MFI
same,fluorescence intensity,[15]; [30],29.8 MFI
same,fluorescence intensity,[15]; [31],27 MFI
same,fluorescence intensity,[15]; [24],28.5 MFI
same,fluorescence intensity,[15]; [25],28.5 MFI
same,fluorescence intensity,[15]; [26],28.8 MFI
same,fluorescence intensity,[15]; [27],30.8 MFI
same,fluorescence intensity,[15]; [28],36.5 MFI
same,fluorescence intensity,[15]; [29],51 MFI
same,fluorescence intensity,[16]; [30],17.5 MFI
same,fluorescence intensity,[16]; [31],17.8 MFI
same,fluorescence intensity,[16]; [24],19.5 MFI
same,fluorescence intensity,[16]; [25],16.5 MFI
same,fluorescence intensity,[16]; [26],17.5 MFI
same,fluorescence intensity,[16]; [27],19.8 MFI
same,fluorescence intensity,[16]; [28],22 MFI
same,fluorescence intensity,[16]; [29],53 MFI
same,fluorescence intensity,[17]; [30],15.8 MFI
same,fluorescence intensity,[17]; [31],15 MFI
same,fluorescence intensity,[17]; [24],16.5 MFI
same,fluorescence intensity,[17]; [25],14 MFI
same,fluorescence intensity,[17]; [26],15.5 MFI
same,fluorescence intensity,[17]; [27],15 MFI
same,fluorescence intensity,[17]; [28],18.5 MFI
same,fluorescence intensity,[17]; [29],41.8 MFI
same,fluorescence intensity,[18]; [30],16.8 MFI
same,fluorescence intensity,[18]; [31],17.5 MFI
same,fluorescence intensity,[18]; [24],16.5 MFI
same,fluorescence intensity,[18]; [25],18.2 MFI
same,fluorescence intensity,[18]; [26],17 MFI
same,fluorescence intensity,[18]; [27],18 MFI
same,fluorescence intensity,[18]; [28],30.5 MFI
same,fluorescence intensity,[18]; [29],89.5 MFI
same,fluorescence intensity,[19]; [30],16.5 MFI
same,fluorescence intensity,[19]; [31],18.8 MFI
same,fluorescence intensity,[19]; [24],16.8 MFI
same,fluorescence intensity,[19]; [25],18.5 MFI
same,fluorescence intensity,[19]; [26],18 MFI
same,fluorescence intensity,[19]; [27],23.5 MFI
same,fluorescence intensity,[19]; [28],36 MFI
same,fluorescence intensity,[19]; [29],57.8 MFI
same,fluorescence intensity,[20]; [30],22.5 MFI
same,fluorescence intensity,[20]; [31],22.5 MFI
same,fluorescence intensity,[20]; [24],22 MFI
same,fluorescence intensity,[20]; [25],23 MFI
same,fluorescence intensity,[20]; [26],23.5 MFI
same,fluorescence intensity,[20]; [27],25.5 MFI
same,fluorescence intensity,[20]; [28],29 MFI
same,fluorescence intensity,[20]; [29],53.5 MFI
same,fluorescence intensity,[21]; [30],28 MFI
same,fluorescence intensity,[21]; [31],29 MFI
same,fluorescence intensity,[21]; [24],30 MFI
same,fluorescence intensity,[21]; [25],28 MFI
same,fluorescence intensity,[21]; [26],29.8 MFI
same,fluorescence intensity,[21]; [27],31.5 MFI
same,fluorescence intensity,[21]; [28],34 MFI
same,fluorescence intensity,[21]; [29],64.5 MFI
same,fluorescence intensity,[22]; [30],15.2 MFI
same,fluorescence intensity,[22]; [31],16 MFI
same,fluorescence intensity,[22]; [24],15 MFI
same,fluorescence intensity,[22]; [25],15.5 MFI
same,fluorescence intensity,[22]; [26],16 MFI
same,fluorescence intensity,[22]; [27],20.5 MFI
same,fluorescence intensity,[22]; [28],39.5 MFI
same,fluorescence intensity,[22]; [29],332 MFI
same,fluorescence intensity,[23]; [30],25.5 MFI
same,fluorescence intensity,[23]; [31],25 MFI
same,fluorescence intensity,[23]; [24],25.5 MFI
same,fluorescence intensity,[23]; [25],26.5 MFI
same,fluorescence intensity,[23]; [26],25.5 MFI
same,fluorescence intensity,[23]; [27],28 MFI

# 6 entries from above, bar-delimited.
binder | measurement | setting | value
B1 | fluorescence intensity | [10]; [27] | 24 MFI
same | fluorescence intensity | [10]; [28] | 30 MFI
same | fluorescence intensity | [10]; [29] | 75 MFI
same | fluorescence intensity | [11]; [30] | 19 MFI
same | fluorescence intensity | [11]; [31] | 19 MFI
same | fluorescence intensity | [11]; [24] | 17.5 MFI

# Not a retest: entries from further up.
binder,measurement,setting,value
B1,fluorescence intensity,[2]; [28],25 MFI
same,fluorescence intensity,[2]; [29],61 MFI
same,fluorescence intensity,[3]; [30],21.5 MFI
same,fluorescence intensity,[3]; [31],22 MFI
same,fluorescence intensity,[3]; [24],22.5 MFI
same,fluorescence intensity,[3]; [25],22.5 MFI

# Quoted at random: 2 records from the list.
binder,measurement,setting,value
B1,fluorescence intensity,[16]; [24],19.5 MFI
same,fluorescence intensity,[23]; [24],25.5 MFI
